From PubChem BioAssay AID1671190 (National Center for Advancing Translational Sciences (NCATS), 2021)
About 6,100 (1.1%) of roughly 580,000 compounds were called active. Inconclusive means that the source gave no clear call. Such entries were picked first, then a sample of the others. The call rests on the fitted dose curve; in most records, active means well fitted inhibition curve with a large enough effect; inconclusive means small, poorly fitted or top-dose-only effect, or another doubt; inactive means no such curve, though single readings can be large or run the other way. A potency beside an inconclusive call is a rough fit, not a confirmed value.

Amino acid sequences for entries named in this document (tags omitted).
UniProt P18054, whole entry, looked up: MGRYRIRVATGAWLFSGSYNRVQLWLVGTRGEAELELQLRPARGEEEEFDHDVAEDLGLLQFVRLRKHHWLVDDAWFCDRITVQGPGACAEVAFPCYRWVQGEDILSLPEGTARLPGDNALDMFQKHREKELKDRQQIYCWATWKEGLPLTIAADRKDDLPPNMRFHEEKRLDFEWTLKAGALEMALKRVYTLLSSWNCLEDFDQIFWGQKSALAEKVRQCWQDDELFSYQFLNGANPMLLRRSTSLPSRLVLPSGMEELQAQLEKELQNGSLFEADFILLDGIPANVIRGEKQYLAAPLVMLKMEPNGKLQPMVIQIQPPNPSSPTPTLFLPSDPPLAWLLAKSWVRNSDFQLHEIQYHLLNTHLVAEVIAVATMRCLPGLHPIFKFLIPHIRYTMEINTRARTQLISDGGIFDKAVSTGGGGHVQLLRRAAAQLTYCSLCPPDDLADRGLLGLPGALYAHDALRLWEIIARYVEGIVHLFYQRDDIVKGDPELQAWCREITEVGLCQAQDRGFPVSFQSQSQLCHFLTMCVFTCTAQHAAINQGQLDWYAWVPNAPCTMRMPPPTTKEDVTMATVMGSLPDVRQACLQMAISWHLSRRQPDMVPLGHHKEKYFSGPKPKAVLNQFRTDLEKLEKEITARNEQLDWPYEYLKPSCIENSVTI

target: Polyunsaturated fatty acid lipoxygenase ALOX12 (Homo sapiens) (UniProt P18054); experiment: Primary qHTS assay for inhibitors of human arachidonate 12S-lipoxygenase (ALOX12): Round 2; details: purified 12hLO, xylenol orange hydroperoxide absorbance; activity change, negative = inhibition: at 108 µM (top of the series) unless noted
Summary of the method: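 Hydroperoxide product was detected by ferrous iron/xylenol orange as the 573 to 405 nm absorbance ratio. Arachidonic acid at 40 uM (final) was turned over for 30 min at room temperature by 150 nM human 12hLO, pH 7.0 Hepes buffer, after 15 min compound preincubation.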
On the % scale 0 is the no-effect control and ±100 the full control effect; potency means the concentration at half of the fitted maximal effect.

SMILES | Potency | activity change, negative = inhibition
CCOc1ncccc1C(=O)OCC(=O)NCc1ccc2c(c1)OCO2 | inconclusive: 100 µM [inhibitor, partial curve, poor fit] | 
O=[N+]([O-])c1cc(S(=O)(=O)O)cc([N+](=O)[O-])c1NN(c1ccccc1)c1ccccc1 | inconclusive: 79.4 µM [inhibitor, partial curve, poor fit] | 
Cc1ccc(-n2c(SCC(=O)NCC3CCCO3)nnc2-c2ccoc2C)cc1 (configuration not stated) |  | inactive: 62.4% [at 57.4 µM]
COc1ccc(/C=N\NS(=O)(=O)c2ccc(C)cc2)cc1COc1ccccc1[N+](=O)[O-] |  | inactive: 8.65%
CC(=O)Nc1ccc(S(=O)(=O)NN=Cc2ccc(Cl)c(Cl)c2)cc1 | inconclusive: 39.8 µM [inhibitor, partial curve] | 
COc1ccccc1NC(=O)COc1nc(CC(C)C)c2c(c1C#N)CCCC2 |  | inactive: 3.34%
CCCCOc1ccc(S(=O)(=O)NC(=O)C2(C)CCN2C(=O)c2c(C)noc2C)cc1 (configuration not stated) | inconclusive: 35.5 µM [inhibitor, partial curve, poor fit] | 
CC(C)c1ccccc1NC(=O)CCCC(=O)O |  | inactive: 466%
Cc1cc(C)cc(NS(=O)(=O)c2c(C)[nH]c(=O)[nH]c2=O)c1 | inconclusive: 112 µM [inhibitor, single point] | 
CN1CCN(CC(=O)Nc2ccccc2C(F)(F)F)CC1 | inconclusive: 2.51 µM [inhibitor, full curve, poor fit] | 
COc1ccc(S(=O)(=O)N2CCOCC2)cc1C(=O)NCc1c(C)nn(Cc2ccccc2)c1C |  | inactive: 9.04%
COc1ccc(C(C[N+](=O)[O-])c2c(-c3ccccc3)cc3ccccn23)cc1OC (configuration not stated) | inconclusive: 35.5 µM [inhibitor, partial curve, poor fit] | 
O=C(NC(=S)Nc1cc(C(F)(F)F)ccc1N1CCOCC1)c1ccco1 | inconclusive: 89.1 µM [inhibitor, partial curve, poor fit] | 
CCn1nnc(NC(=S)NC(=O)c2ccc(-c3cccc(Cl)c3)o2)n1 | inconclusive: 39.8 µM [inhibitor, single point] | 
Cc1[nH]n2c(=O)cc(-c3ccc(Cl)cc3)nc2c1-c1ccc(F)cc1 | active: 22.4 µM | 
CSc1nc(-c2ccco2)cc(-c2ccccc2)c1C#N | inconclusive: 28.2 µM [inhibitor, single point] | 
CNc1nc(-c2ccccc2C(F)(F)F)nc2ccccc12 | inconclusive: 39.8 µM [inhibitor, partial curve, poor fit] | 
Cc1ccc(NC(=O)C(C#N)C(=O)c2ccc(C(C)(C)C)cc2)cc1 (configuration not stated) | inconclusive: 0.501 µM [inhibitor, full curve, poor fit] | 
Oc1ccc(/C=N/N(c2ccccc2)c2ccccc2)c(O)c1O | active: 11.2 µM | 
Cc1cccc(OCC(=O)Nc2nonc2-c2ccc(Br)cc2)c1C | inconclusive: 112 µM [inhibitor, partial curve, poor fit] | 
O=C(COc1ccc(Cl)cc1)Nc1sc2c(c1C(=O)Nc1cccc(Cl)c1)CCCC2 | inconclusive: 126 µM [inhibitor, single point] | 

SMILES | Potency | activity change, negative = inhibition
CCOC(=O)c1cnn(-c2cc(C)nc3c(-c4ccc(Cl)cc4)c(C(F)(F)F)nn23)c1N |  | inactive: -3.15%
CCN(CC)c1ccc(Nc2nc(-c3c(C)nc4sccn34)cs2)cc1 | inconclusive: 100 µM [inhibitor, single point] | 
COc1ccc(C(=O)Nc2ccccc2C(N)=O)cc1 | inconclusive: 100 µM [inhibitor, single point] | 
CCOc1ccc(CC(=O)Nc2ccc3c(c2)N(C)C(=O)c2ccccc2S3)cc1OCC |  | inactive: -22.3%
O=C(COC(=O)c1cc2c(s1)CCCC2)Nc1ccc(Cl)cc1 | inconclusive: 70.8 µM [inhibitor, partial curve, poor fit] | 
COc1ccc(C(=O)C(C)OC(=O)c2cc(C)nc3ccccc23)cc1 (configuration not stated) |  | inactive: -14.6%
Cc1cccc(C)c1-n1ncc(C(=O)NCc2ccc3c(c2)OCO3)c1C1CCN(C(=O)OC(C)(C)C)CC1 | inconclusive: 141 µM [inhibitor, partial curve, poor fit] | 
CCCCc1c(-c2ccccc2OC)ncn1Cc1cccc(C)c1 | inconclusive: 50.1 µM [inhibitor, partial curve, poor fit] | 
CC(C)(C)c1ccc(NC(=O)C(=O)C2C(=O)Nc3ccccc32)cc1 (configuration not stated) |  | inactive: -4.98%
CCOC(=O)C1=C(C)N(C[C@@H]2CC[C@@H](Cc3ccc(-c4ccccc4)cc3)O2)C(=O)NC1C1CC1 (some centres not stated) | inconclusive: 35.5 µM [inhibitor, single point] | 
CC(CCCC(C)(C)O)NC(=O)c1cc(COc2ccc3ncccc3c2)on1 (configuration not stated) |  | inactive: 2.94%
CCCCN1C(=N)N([C@@H](CCC)CN2CCC[C@H]2CN2C(N)=NC[C@@H]2Cc2ccccc2)C[C@H]1Cc1ccccc1 | inconclusive: 50.1 µM [inhibitor, single point] | 
COc1cc(/C=N\Nc2nc(-c3ccc(C)cc3)c(NC(C)=O)s2)ccc1O | inconclusive: 31.6 µM [inhibitor, single point] | 
CN1CCN(CC(O)COCCOc2ccc(Br)cc2)CC1 (configuration not stated) |  | inactive: -25.4%
CN(C)C(=O)c1c[nH]c2cccnc12 | inconclusive: 6.51 µM [inhibitor, single point] | 
Cc1ccc(C(=O)c2coc3cc([N+](=O)[O-])c(O)c([N+](=O)[O-])c23)cc1 | inconclusive: 44.7 µM [inhibitor, partial curve, poor fit] | 
COc1ccc(CNc2nc(S(=O)(=O)c3ccccc3)c(Cl)s2)cc1OC |  | inactive: -25.9%
CCOC(=O)CSC1=C(C#N)C(c2ccco2)C(C(=O)Nc2cccc(C(F)(F)F)c2)=C(C)N1 (configuration not stated) | inconclusive: 28.2 µM [inhibitor, partial curve, poor fit] | 
C=CCN=C1S/C(=C\c2ccc(Cl)cc2)C(=O)N1CC=C | inconclusive: 89.1 µM [inhibitor, single point] | 
COC(=O)c1oc(-c2ccc(Cl)cc2)nc1C |  | inactive: -13.5%
CCCCn1c(=O)[nH]c(=O)c2c1nc(COC(=O)c1ccc(C)cc1)n2CCC | inconclusive: 56.2 µM [inhibitor, single point] | 

Part of the list above in order of length of the SMILES, high to low:
SMILES | Potency | activity change, negative = inhibition
Cc1ccc(C(=O)c2coc3cc([N+](=O)[O-])c(O)c([N+](=O)[O-])c23)cc1 | inconclusive: 44.7 µM [inhibitor, partial curve, poor fit] | 
CCCCOc1ccc(S(=O)(=O)NC(=O)C2(C)CCN2C(=O)c2c(C)noc2C)cc1 (configuration not stated) | inconclusive: 35.5 µM [inhibitor, partial curve, poor fit] | 
CCOc1ccc(CC(=O)Nc2ccc3c(c2)N(C)C(=O)c2ccccc2S3)cc1OCC |  | inactive: -22.3%
COc1cc(/C=N\Nc2nc(-c3ccc(C)cc3)c(NC(C)=O)s2)ccc1O | inconclusive: 31.6 µM [inhibitor, single point] | 
COc1ccc(CNc2nc(S(=O)(=O)c3ccccc3)c(Cl)s2)cc1OC |  | inactive: -25.9%
COc1ccccc1NC(=O)COc1nc(CC(C)C)c2c(c1C#N)CCCC2 |  | inactive: 3.34%
COc1ccc(C(=O)C(C)OC(=O)c2cc(C)nc3ccccc23)cc1 (configuration not stated) |  | inactive: -14.6%
CCN(CC)c1ccc(Nc2nc(-c3c(C)nc4sccn34)cs2)cc1 | inconclusive: 100 µM [inhibitor, single point] | 
O=C(COC(=O)c1cc2c(s1)CCCC2)Nc1ccc(Cl)cc1 | inconclusive: 70.8 µM [inhibitor, partial curve, poor fit] | 
C=CCN=C1S/C(=C\c2ccc(Cl)cc2)C(=O)N1CC=C | inconclusive: 89.1 µM [inhibitor, single point] | 
CCCCc1c(-c2ccccc2OC)ncn1Cc1cccc(C)c1 | inconclusive: 50.1 µM [inhibitor, partial curve, poor fit] | 
CN(C)C(=O)c1c[nH]c2cccnc12 | inconclusive: 6.51 µM [inhibitor, single point] | 
